Laboratory results: patent US20150232556A1
No constants are given. Whether binding was seen depends on the method and setting. Some binding calls cover weakened binding; strength is not graded here.

By UniProt entry, the sequences of proteins in these tests, tags left out. Where a name states a change or a piece, a line headed by the entry shows the natural chain unless it says otherwise. Residues count along the entry.
UniProt P43630, residues 22-455: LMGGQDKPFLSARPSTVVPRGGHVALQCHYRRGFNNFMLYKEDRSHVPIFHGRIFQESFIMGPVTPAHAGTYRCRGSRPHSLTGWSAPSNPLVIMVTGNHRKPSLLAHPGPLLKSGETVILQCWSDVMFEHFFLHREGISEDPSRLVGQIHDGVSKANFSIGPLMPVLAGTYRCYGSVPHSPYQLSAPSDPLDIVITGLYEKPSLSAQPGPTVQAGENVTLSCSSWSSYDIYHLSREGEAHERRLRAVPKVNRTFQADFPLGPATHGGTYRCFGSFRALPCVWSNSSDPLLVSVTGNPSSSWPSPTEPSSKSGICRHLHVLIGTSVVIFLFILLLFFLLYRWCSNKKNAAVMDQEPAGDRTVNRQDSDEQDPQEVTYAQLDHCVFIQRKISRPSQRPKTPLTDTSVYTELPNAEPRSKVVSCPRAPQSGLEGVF

Key:
[1] = molecular target: KIR3DL2 on the HUT78 Sezary cell line (heterozygous for alleles 3DL2*002 and 3DL2*007) (human) (UniProt P43630); assay: flow cytometry on HUT78 cells after 1, 24 or 48 h at 37° C.
[2] = molecular target: KIR3DL2 on the HUT78 Sezary cell line (heterozygous for alleles 3DL2*002 and 3DL2*007) (human) (UniProt P43630); assay: flow cytometry on HUT78 cells, dose range 0.0005 to 30 µg/ml, anti-human-Fc PE
[3] = molecular target: KIR3DL2 on the HUT78 Sezary cell line (heterozygous for alleles 3DL2*002 and 3DL2*007) (human) (UniProt P43630); assay: flow cytometry on HUT78 cells after 20 h at 37° C.
[4] = molecular target: KIR3DL2 on the HUT78 Sezary cell line (heterozygous for alleles 3DL2*002 and 3DL2*007) (human) (UniProt P43630); assay: flow cytometry on HUT78 cells
[5] = molecular target: KIR3DL2 Domain 0 expressed on HEK-293T cells (human) (UniProt P43630); assay: flow cytometry screen, HEK-293T/KIR3DL2 Domain 0-eGFP
[6] = molecular target: human KIR3DL2 on cells, allele not stated (human) (UniProt P43630); assay: fresh Sezary Syndrome cells, 24 h at 37° C., goat anti-mouse-PE, flow cytometry
[7] = molecular target: KIR3DL2 mutant M1 + 2A2 (Q56S; E57A) (human) (UniProt P43630); assay: binding to HEK-293T cells transfected with KIR3DL2 mutant
[8] = molecular target: KIR3DL2 on the HUT78 Sezary cell line (heterozygous for alleles 3DL2*002 and 3DL2*007) (human) (UniProt P43630); assay: fluorescence microscopy on HUT78 cells, 10 µg/ml antibody
[9] = molecular target: human KIR3DL2 on cells, allele not stated (human) (UniProt P43630); assay: flow cytometry screens on KIR3DL2-expressing cells

Measured: binding

B1: antibody 2B12 (human IgG1) (antibody, V domains shown)
VH: QIQLVQSGPELKKPGETVRISCKASGYTFTTAGMQWVQKTPGKGLKWIGWINSHSGVPKYAEDFKGRFAFSLETSASTAYLQISTLKNEDTATYFCARGGDEGVMDYWGQGTSVTVS
VL: DIVMTQSHKFMSTSLGDRVSFTCKASQDVSTAVAWYQQKPGQSPKLLIYWTSTRHTGVPDRFTGSGSGTDYTLTISSVQAEDLALYYCQQHYSTPWTFGGGTKLEIK
binds: [1] | [2] | [3] | [4]

B2: antibody 10G5 (antibody, V domains shown)
VH: QVQLQQSAAELARPGASVKMSCKASGYTFTSYTMHWVKQRPGQGLEWIGYINPSSGYTENNRKFKDKTTLTADKSSSTAYMQLSSLTSEDSAVYYCARLGKGLLPPFDYWGQGTTLTVSS
VL: DIQMTQSPASLSVSVGETVTITCRASENIYSNLAWYQQKQGKSPQLLVYAATNLADGVPSRFSGSGSGTQYSLKINSLQSEDFGSYYCQHFWGTPYTFGGGTKLEIK
binds: [5]

B3: antibody 10F6 (antibody, V domains shown)
VH: QIQLVQSGPELKKPGETVRISCKASGYTFTIAGMQWVQKMPGKGLKWIGWINTHSGVPKYAEDFKGRFAFSLETSANIAYLQISNLKNEDTATYFCARGGDEGVMDYWGQGTSVTVS
VL: DIVMTQSHKFMSTSVGDRVSITCKASQDVSTAVAWYHQKPGQSPKLLIYWASTRHTGVPDRFSGSGSGTDYTLTISALQAEDLALYYCQQHYNTPWTFGGGTKLEIK
binds: [6] | [7] | [5] | [8]

B4: antibody 2B12 (antibody, V domains shown)
VH: QIQLVQSGPELKKPGETVRISCKASGYTFTTAGMQWVQKTPGKGLKWIGWINSHSGVPKYAEDFKGRFAFSLETSASTAYLQISTLKNEDTATYFCARGGDEGVMDYWGQGTSVTVS
VL: DIVMTQSHKFMSTSLGDRVSFTCKASQDVSTAVAWYQQKPGQSPKLLIYWTSTRHTGVPDRFTGSGSGTDYTLTISSVQAEDLALYYCQQHYSTPWTFGGGTKLEIK
binds: [6] | [7] | [5] | [8]

B5: antibody 1C3 (antibody, V domains shown)
VH: QVQLQQSGAELARPGASVKLSCKASGYTFTSYWMQWVKQRPGQGLEWIGAIYPGDGDTRYTQKFKGKATLTADKSSSTAYMQLSSLASEDSAVYYCARRYDGYYHFDYWGQGTTLTVS
VL: DIVMTQSPSSLAVTAGEKVTMSCKSSQSLLWSVNQKNYLSWYQQKQRQPPKLLIYGASIRESWVPDRFTGSGSGTDFTLTISNVHAEDLAVYYCQHNHGSFLPLTFGSGTKLEIK
binds: [6] | [9] | [8]

B6: antibody 20E9 (antibody, V domains shown)
VH: QVQLQQSGAEVARPGASVKLSCKSSGFTFTTYWMQWVKQRPGQGLEWIGAIYPGDGDTRYTQKFKGKATLTADKSSITAYMQLSSLASEDSAVYYCARRGDYGNYGMDYWGQGTSVTVSS
VL: DVLMTQTPLSLPVSLGDQASISCRSSQSIVHSNGNTYLEWYLQKPGQSPKLLIYKVSNHFSGVPDRFSGSGSGTDFTLKISRVEAEDLGVYYCFQGSHVPPTFGGGTKLEIK
binds: [6] | [9] | [8]
